This note sets out measurements from PubChem BioAssay AID326 (DTP/NCI, 2004).

The subject of the assay is CD2F1 mice, P388/DHAQ leukemia ip, median survival T/C. The assay can be described thus: NCI In Vivo Anticancer Drug Screen. Data for tumor model P388 Leukemia resistant to Dihydroxy Anthracenedione; NSC 299195 (intraperitoneal) in CD2F1 (CDF1) mice. The conditions noted are these: T/C endpoint: median survival time, schedule: Q04DX003 (ip), vehicle: saline, higher T/C = longer survival. The protocol:
The antitumor activity of compounds was measured in mice bearing transplantable tumors. Survival or tumor size were measured and the results are expressed as the measurement made in the treated group (T) divided by the measurement made in the vehicle treated control group (C). The tumor model used in this assay is P388 Leukemia resistant to Dihydroxy Anthracenedione; NSC 299195 (intraperitoneal) in CD2F1 (CDF1) mice

The list shows only some results of the screen, not a fair sample: its compounds were picked by chemical class. Other doses and runs of a compound may be missing. T/C: endpoint of the treated group in % of that of the vehicle group. For survival time, the PubChem record calls one and a half times the control and up active, and a quarter to a half above the control has no call in these data; cut-offs in other NCI protocols can differ. Schedules are NCI's codes, taken here to give the interval after Q, in days (D) or hours (H), and the number of doses after X. Some T/C values are marked as having no survivor count here; that says nothing about deaths at the dose.

For the compound `CC(=O)OCC12CCC(C)=CC1OC1C(O)C(OC(C)=O)C2(C)C12CO2` (configuration not stated), the T/C was 126 % of control [survivor count not shown] (dose: 3.24 mg/kg/injection) and 135 % of control [survivor count not shown] (dose: 5.4 mg/kg/injection).
